The supplement of paper PMC11409438
The list shows a part of the results. Most values come without repeats; read them as rough.

The molecules below were run on Caenorhabditis elegans ST65 (ncIs13[ajm-1::GFP]) (assay: vulvae per adult worm (MAPK/ERK-dependent vulval induction, MetaXpress) (vulvae/adult); higher = more vulval induction (less MAPK/ERK inhibition)). Conditions: 10 µM; exposure time: 4-5 days from L1 at 20°C.
For `COC(=O)c1ccc2c(c1)[nH]c1ncnc(NCCCN3CCCCC3)c12`, the “vulvae per adult worm” value was 0.833. `Cc1cccc(-c2nn3c(c2-c2ccnc4ccc(C(N)=O)cc24)CCC3)n1` was tested, and the “vulvae per adult worm” value was 0.971. `CCNC(=O)CCC/C=C\C[C@@H]1[C@@H](/C=C/[C@@H](O)CCc2ccccc2)[C@H](O)C[C@@H]1O` [Bimatoprost] was tested, and the “vulvae per adult worm” value was 0.893. For `CNC(=O)c1ccc(N2C(=S)N(c3ccc(C#N)c(C(F)(F)F)c3)C(=O)C2(C)C)cc1F` [Enzalutamide (MDV3100)], the “vulvae per adult worm” value was 0.556. `FC(F)(F)c1ccc(/C=C/c2nc(COc3ccc(CCCCn4ccnn4)cc3)co2)cc1` [Mubritinib (TAK 165)] was tested, and the “vulvae per adult worm” value was 0.935. For `CC1(C)NC(=O)N(c2ccc([N+](=O)[O-])c(C(F)(F)F)c2)C1=O` [Nilutamide], the “vulvae per adult worm” value was 1.27. With `CC[C@H](C)C(=O)O[C@H]1C[C@@H](C)C=C2C=C[C@H](C)[C@H](CC[C@@H]3C[C@@H](O)CC(=O)O3)[C@H]21` [Lovastatin] the “vulvae per adult worm” value was 1. In the case of `CCS(=O)(=O)N1CCN(c2ccc(Nc3ncc(C(N)=O)c(NC4CC4)n3)cc2)CC1`, the “vulvae per adult worm” value is reported as 1.38. With `Cc1c(F)cc(C(=O)NC2CC2)cc1-c1ccc(C(=O)NCC(C)(C)C)cn1` the “vulvae per adult worm” value was 0.455. `CN1CCN(CCOc2cc(OC3CCOCC3)c3c(Nc4c(Cl)ccc5c4OCO5)ncnc3c2)CC1` [Saracatinib (AZD0530)] was tested, and the “vulvae per adult worm” value was 1.31. With `Nc1nc2[nH]cc(CCc3ccc(C(=O)N[C@@H](CCC(=O)O)C(=O)O)cc3)c2c(=O)[nH]1` [Pemetrexed] the “vulvae per adult worm” value was 0.947. With `CC/C(=C(\c1ccccc1)c1ccc(OCCN(C)C)cc1)c1ccccc1` [Tamoxifen] the “vulvae per adult worm” value was 0.978. With `CN(Cc1cnc2nc(N)nc(N)c2n1)c1ccc(C(=O)N[C@@H](CCC(=O)O)C(=O)O)cc1` [Methotrexate] the “vulvae per adult worm” value was 0.794. `O=C(O)c1ccc2c(c1)nc(Nc1cccc(Cl)c1)c1ccncc12` [Silmitasertib (CX-4945)] was tested, and the “vulvae per adult worm” value was 1. For `O=c1ncn2nc(Sc3ccc(F)cc3F)ccc2c1-c1c(Cl)cccc1Cl`, the “vulvae per adult worm” value was 0.645. In the case of `CO[C@H]1CC[C@H](N2C(=O)CNc3ncc(-c4ccc(C(C)(C)O)nc4)nc32)CC1`, the “vulvae per adult worm” value is reported as 0.769. `O=C(O)c1ccc(CN2CCC(CN[C@@H]3C[C@H]3c3ccccc3)CC2)cc1` was tested, and the “vulvae per adult worm” value was 1.06. For `N#CC1(c2ccc(NC(=O)c3cccnc3NCc3ccncc3)cc2)CCCC1`, the “vulvae per adult worm” value was 0.64. For `CNC(=O)c1cc(COc2nnc(Nc3ccc(Cl)cc3)c3ccoc23)ccn1` [Telatinib], the “vulvae per adult worm” value was 1.07. `CCCCNc1ncc(C(=O)NCc2ccc(-n3ccnc3)cc2)c(NC2CCC(O)CC2)n1` (centres undefined) was tested, and the “vulvae per adult worm” value was 1. In the case of `CCN1CCN(Cc2ccc(Nc3ncc(F)c(-c4cc(F)c5nc(C)n(C(C)C)c5c4)n3)nc2)CC1` [Abemaciclib], the “vulvae per adult worm” value is reported as 0.86. In the case of `Cc1cccc(-c2[nH]c(CNc3ccccc3F)nc2-c2ccc3ncnn3c2)n1` [Vactosertib ?(TEW-7197)], the “vulvae per adult worm” value is reported as 1.12. In the case of `C=CC(=O)N1CCC[C@@H](n2nc(-c3ccc(Oc4ccccc4)cc3)c3c(N)ncnc32)C1`, the “vulvae per adult worm” value is reported as 1.11. `CCCCCCCCCCCCCCCCCCOP(=O)([O-])OC1CC[N+](C)(C)CC1` [Perifosine (KRX-0401)] was tested, and the “vulvae per adult worm” value was 0.581.
